Data published in PMC10076346.
These are yes or no findings as the source states them, for the method shown. Binding seen in cells or lysates may run through a third protein. Some entries that bind do so weakly or less than the wild type. Values belong to the molecule of their own block, whether it stands above or below them.

By UniProt entry, the sequences of proteins in these tests, tags left out.
UniProt P17844: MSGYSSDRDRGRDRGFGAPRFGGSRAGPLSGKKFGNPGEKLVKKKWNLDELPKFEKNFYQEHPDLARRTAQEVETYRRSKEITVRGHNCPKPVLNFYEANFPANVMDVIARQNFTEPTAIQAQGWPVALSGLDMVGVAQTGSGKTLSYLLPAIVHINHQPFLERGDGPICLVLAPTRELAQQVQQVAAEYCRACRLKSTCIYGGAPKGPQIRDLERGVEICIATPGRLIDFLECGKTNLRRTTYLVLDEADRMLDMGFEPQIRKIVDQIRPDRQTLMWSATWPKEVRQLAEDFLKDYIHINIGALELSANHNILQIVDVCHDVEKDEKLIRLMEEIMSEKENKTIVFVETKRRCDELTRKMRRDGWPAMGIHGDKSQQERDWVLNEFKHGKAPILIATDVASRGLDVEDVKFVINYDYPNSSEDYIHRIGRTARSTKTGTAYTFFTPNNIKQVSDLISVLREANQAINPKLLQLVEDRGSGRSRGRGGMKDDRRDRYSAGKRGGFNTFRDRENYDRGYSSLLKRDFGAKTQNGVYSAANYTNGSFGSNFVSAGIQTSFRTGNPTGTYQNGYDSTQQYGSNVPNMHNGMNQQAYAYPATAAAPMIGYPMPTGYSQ
UniProt Q86U44: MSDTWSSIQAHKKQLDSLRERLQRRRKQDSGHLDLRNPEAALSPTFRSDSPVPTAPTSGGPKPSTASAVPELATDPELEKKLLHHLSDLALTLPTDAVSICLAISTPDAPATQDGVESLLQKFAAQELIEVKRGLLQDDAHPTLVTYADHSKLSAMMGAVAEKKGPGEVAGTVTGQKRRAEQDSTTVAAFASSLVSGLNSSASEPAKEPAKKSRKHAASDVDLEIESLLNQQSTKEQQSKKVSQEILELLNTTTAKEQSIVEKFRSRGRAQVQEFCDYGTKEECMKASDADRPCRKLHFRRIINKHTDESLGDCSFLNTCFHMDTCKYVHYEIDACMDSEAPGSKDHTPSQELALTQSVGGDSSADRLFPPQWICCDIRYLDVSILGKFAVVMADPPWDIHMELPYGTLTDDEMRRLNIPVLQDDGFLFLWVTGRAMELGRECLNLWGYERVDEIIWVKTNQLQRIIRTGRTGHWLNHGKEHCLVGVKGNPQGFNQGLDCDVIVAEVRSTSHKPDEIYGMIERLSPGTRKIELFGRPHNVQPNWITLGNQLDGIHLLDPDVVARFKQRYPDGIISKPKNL

Target: ATP-dependent RNA helicase DEAD box helicase 5 (DDX5) (human (endogenous in RD)) (UniProt P17844)
Experiment: co-IP; endogenous DDX5 IP (Dynabeads Protein G) or YTHDC1 IP (Dynabeads Protein A) from RD whole-cell lysate; co-IP buffer 50 mM Tris-HCl pH 7.5, 150 mM NaCl, 1 mM EDTA, 0.25% NP-40, 5% glycerol; antibody overnight at 4 °C; western blot

- binding: binds
Molecule: METTL3 (from UniProt Q86U44 1-580)

- binding: binds
B1: Drosha (protein, UniProt Q9NRR4 1-1374)
chain: MMQGNTCHRMSFHPGRGCPRGRGGHGARPSAPSFRPQNLRLLHPQQPPVQYQYEPPSAPSTTFSNSPAPNFLPPRPDFVPFPPPMPPSAQGPLPPCPIRPPFPNHQMRHPFPVPPCFPPMPPPMPCPNNPPVPGAPPGQGTFPFMMPPPSMPHPPPPPVMPQQVNYQYPPGYSHHNFPPPSFNSFQNNPSSFLPSANNSSSPHFRHLPPYPLPKAPSERRSPERLKHYDDHRHRDHSHGRGERHRSLDRRERGRSPDRRRQDSRYRSDYDRGRTPSRHRSYERSRERERERHRHRDNRRSPSLERSYKKEYKRSGRSYGLSVVPEPAGCTPELPGEIIKNTDSWAPPLEIVNHRSPSREKKRARWEEEKDRWSDNQSSGKDKNYTSIKEKEPEETMPDKNEEEEEELLKPVWIRCTHSENYYSSDPMDQVGDSTVVGTSRLRDLYDKFEEELGSRQEKAKAARPPWEPPKTKLDEDLESSSESECESDEDSTCSSSSDSEVFDVIAEIKRKKAHPDRLHDELWYNDPGQMNDGPLCKCSAKARRTGIRHSIYPGEEAIKPCRPMTNNAGRLFHYRITVSPPTNFLTDRPTVIEYDDHEYIFEGFSMFAHAPLTNIPLCKVIRFNIDYTIHFIEEMMPENFCVKGLELFSLFLFRDILELYDWNLKGPLFEDSPPCCPRFHFMPRFVRFLPDGGKEVLSMHQILLYLLRCSKALVPEEEIANMLQWEELEWQKYAEECKGMIVTNPGTKPSSVRIDQLDREQFNPDVITFPIIVHFGIRPAQLSYAGDPQYQKLWKSYVKLRHLLANSPKVKQTDKQKLAQREEALQKIRQKNTMRREVTVELSSQGFWKTGIRSDVCQHAMMLPVLTHHIRYHQCLMHLDKLIGYTFQDRCLLQLAMTHPSHHLNFGMNPDHARNSLSNCGIRQPKYGDRKVHHMHMRKKGINTLINIMSRLGQDDPTPSRINHNERLEFLGDAVVEFLTSVHLYYLFPSLEEGGLATYRTAIVQNQHLAMLAKKLELDRFMLYAHGPDLCRESDLRHAMANCFEALIGAVYLEGSLEEAKQLFGRLLFNDPDLREVWLNYPLHPLQLQEPNTDRQLIETSPVLQKLTEFEEAIGVIFTHVRLLARAFTLRTVGFNHLTLGHNQRMEFLGDSIMQLVATEYLFIHFPDHHEGHLTLLRSSLVNNRTQAKVAEELGMQEYAITNDKTKRPVALRTKTLADLLESFIAALYIDKDLEYVHTFMNVCFFPRLKEFILNQDWNDPKSQLQQCCLTLRTEGKEPDIPLYKTLQTVGPSHARTYTVAVYFKGERIGCGKGPSIQQAEMGAAMDALEKYNFPQMAHQKRFIERKYRQELKEMRWEREHQEREPDETEDIKK
